Source: patent US11541019B2, “Compositions for use in the treatment of diabetes” (University of Ulster, priority 2015, dated 2023)

System: high fat fed diabetic NIH Swiss mice
Assay: Long-term daily oral administration in high fat fed diabetic mice
Type: in vivo
Details: HFF mice, DEXA
Experimental: […] In order to confirm diabetes, an oral glucose tolerance test (OGTT) was performed. Food intake, fluid intake, body weight, non-fasted plasma glucose and insulin concentrations were monitored every 2- to 4-days as indicated in the accompanying drawings. At the end of the study, glucose tolerance (18 mmol/kg body weight) and insulin sensitivity (25 U/kg body weight) were assessed. Mice were anesthetised by isoflurane and killed by cervical dislocation. Dual energy X-ray absorption (DEXA) scanning was performed after prior calibration and quality control with the aluminium/lucite phantom (0.069 g/cm2, 12.0% fat) using a PIXImus system (software version 1.4x).

c1ccc2c(Cc3c[nH]c4ccccc34)c[nH]c2c1 [Diindolylmethane, 3,3′-methanediylbis(1H-indole)]
no change: body mineral density | bone area | bone mineral content

CCCCCCCCCCCC1=C(O)C(=O)C=C(O)C1=O [Embelin, 2,5-dihydroxy-3-undecylcyclohexa-2,5-diene-1,4-dione]
no change: body mineral density | bone area | bone mineral content
